Test results reported in PubChem BioAssay AID1259354 (Paczesny and Yang Labs, IUPUI and University of Michigan, 2018).
Several values for one entry are separate records, joined by “and”; a condition that tells them apart may be missing. Equal values may be shown once. About 1,800 (2.3%) of roughly 78,000 compounds were called active. Inconclusive means that the source gave no clear call. Such entries were picked first, then a sample of the others. Cut-off read from the data, not from the text of the source: active = inhibition above about 30%; inconclusive = mostly about 10% to 28%; inactive = weaker than that.

Amino acid sequences for entries named in this document (tags omitted). A change or cut given only in a name is not applied to a line headed by its entry.
UniProt Q01638: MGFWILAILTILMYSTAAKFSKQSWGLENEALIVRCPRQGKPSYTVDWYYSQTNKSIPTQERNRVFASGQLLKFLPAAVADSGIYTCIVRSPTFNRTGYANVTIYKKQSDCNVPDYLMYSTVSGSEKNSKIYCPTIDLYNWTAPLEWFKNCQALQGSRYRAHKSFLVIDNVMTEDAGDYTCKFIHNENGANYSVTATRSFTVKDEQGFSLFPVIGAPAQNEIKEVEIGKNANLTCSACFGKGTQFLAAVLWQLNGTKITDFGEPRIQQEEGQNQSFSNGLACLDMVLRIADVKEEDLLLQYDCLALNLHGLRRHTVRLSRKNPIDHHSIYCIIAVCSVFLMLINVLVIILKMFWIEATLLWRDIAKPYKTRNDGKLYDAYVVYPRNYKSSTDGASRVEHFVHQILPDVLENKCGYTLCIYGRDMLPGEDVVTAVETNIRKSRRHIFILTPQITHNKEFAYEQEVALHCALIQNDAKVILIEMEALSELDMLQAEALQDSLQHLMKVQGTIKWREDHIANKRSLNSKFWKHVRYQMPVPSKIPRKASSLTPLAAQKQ

The compounds below were run against Interleukin-1 receptor-like 1 (Homo sapiens) (UniProt Q01638) (assay: blocks human ST2 binding to IL-33, primary screen, biochemical, AlphaLISA (AID 1259354)). Settings: AlphaLISA ST2-Fc/biotin-IL-33 interaction, 1 h; at 17 µM, stronger effect = higher value.

SMILES	inhibition
CC(C)OCCCNC(=O)C1(O)c2ccccc2NC(=O)N1c1ccc(Cl)cc1 (stereo unspecified)	inactive
CN(Cc1ccccc1)c1ncccc1CNC(=O)c1ccc(=O)n(C)c1	inactive
COc1ccc(-c2oc3ncn(Cc4ccccc4)c(=N)c3c2-c2ccc(OC)cc2)cc1	active: 39%
CCSc1nc2c(c(=O)[nH]1)C(c1ccc(F)cc1)C1=C(CCCC1=O)N2 (stereo unspecified)	inactive
CC(NC(=O)c1cc(COc2cccc(C(F)(F)F)c2)on1)c1nccs1 (stereo unspecified)	inconclusive: 16%
CC(C)C(NS(=O)(=O)c1cccs1)C(=O)N1CCN(c2ccc(F)cc2)CC1 (stereo unspecified)	inactive
Cc1nnc(SCCC(=O)N2[C@@H]3CC[C@H]2CNC(=O)C3)s1	inconclusive: 10%
O=C(Nc1ccc(Br)c2cccnc12)c1ccc([N+](=O)[O-])cc1Cl	inconclusive: 23%
Cc1ccc(C(CCO)n2cc(-c3ccnc4ccccc34)nn2)cc1 (stereo unspecified)	inconclusive: 17%
COc1ccc(CNC(=O)CC[C@]23CC[C@](C)(O)C[C@H]2C(C)(C)C[C@@H]3NCc2ccccc2OC)cc1	inconclusive: 18%
O=c1c2ccccc2nc(/C=C/c2ccccc2)n1Cc1ccccc1	inactive
O=[N+]([O-])c1cccc(C2SCCN2S(=O)(=O)c2ccc(-c3ccccc3)cc2)c1 (stereo unspecified)	inconclusive: 11%
CN1/C(=C\C(=O)c2ccc([N+](=O)[O-])cc2)C(C)(C)c2ccccc21	active: 36%
Cc1ccc(C(C)C)c(OCCNCc2ccco2)c1	inactive
CN(Cc1ccccc1)c1ncccc1CNC(=O)C1(C)CCCO1 (stereo unspecified)	active: 35%
Cn1c(CC2CCNCC2)nnc1SCc1cc(F)ccc1Cl	inconclusive: 18%
CCc1ccc(S(=O)(=O)N2CCN(c3nc(C)cc(N4CCCC4)n3)CC2)cc1	inconclusive: 10%
CC(C)c1noc(CN2CCCC3(C2)C(=O)Nc2ccccc23)n1 (stereo unspecified)	inactive
CCCCn1cnc2oc(-c3ccccc3)c(-c3ccccc3)c2c1=N	inactive
O=S1(=O)CCC=C1c1ccccc1CN1CCOCC1	inconclusive: 11%
CCOc1ccc(S(=O)(=O)N=C2C=C(Nc3ccc(OC)cc3)C(=O)c3ccccc32)cc1	active: 93%
Cc1ccc(C(C)Cc2[nH]cnc2-c2ccccc2)o1 (stereo unspecified)	inactive
COC(=O)c1ccccc1N1C(=O)c2ccc(-c3nc4ccccc4c(=O)o3)cc2C1=O	inconclusive: 13%
CCOc1ccc(Br)cc1S(=O)(=O)NCc1ccccc1	inconclusive: 15%

SMILES	inhibition
CC(=O)NC1=C(N2CCN(Cc3ccccc3)CC2)C(=O)c2ccccc2C1=O	inconclusive: 25%
Cc1ccc(N2CC(NC(=O)c3cc4ccccc4o3)CC2=O)cc1C (stereo unspecified)	inconclusive: 22%
COc1ccc(NC(=O)CN(c2ccccc2)S(=O)(=O)c2ccccc2[N+](=O)[O-])cc1Cl	inconclusive: 16%
Cc1ccc(C2OC3(C(=O)c4ccccc4C3=O)C3C(=O)N(Cc4ccccc4)C(=O)C23)cc1 (stereo unspecified)	inconclusive: 11%
CCc1ccccc1OC1CN(C(=O)c2nnc(CN(C)C)o2)C1	inconclusive: 15%
COCCNc1nc(-c2ccccc2F)nc2ccccc12	inconclusive: 21%
CC(C)CCNC(=O)c1ccco1	inactive
COc1ccc2cc(C(=O)Nc3ccccc3)c(=Nc3ccccc3F)oc2c1	inconclusive: 17%
Cc1nonc1C1CCCN1Cc1ncccc1C(=O)O (stereo unspecified)	inconclusive: 12%
O=C(CCCn1c(=O)[nH]c2ccsc2c1=O)Nc1ccccc1	inactive
C=C(C)Cn1c(CNC(=O)CC)nc2ccccc21	inconclusive: 12%
Cc1ccccc1Cn1cc(C(=O)N(C)Cc2ccc(Oc3ccccc3)cc2)nn1	inconclusive: 12%
O=C1Nc2ccccc2C(O)(C(=O)NC2CCCCC2)N1c1ccccc1 (stereo unspecified)	inconclusive: 10%
Cc1cccc(NC(=O)NCCc2nc3cccnc3n2C2CCCCC2)c1C	inactive
Cc1nn(C)cc1CN1CCOc2ccc(C3=Cc4ccccc4C3)cc2C1	inconclusive: 10%
COc1ccc(CN2C[C@@H]3OCC(=O)N(c4ccccc4)[C@@H]3C2)cc1	inconclusive: 16%
Cc1nc2ccc(Cl)cc2c2c(N)c3ccccc3n12	inconclusive: 27% and inconclusive: 26%
CS(=O)(=O)c1ccc2nc(NC(=O)CCCc3ccccc3)sc2c1	inactive
C/C=c1/nc(-c2ccc(F)cc2)n2c1nc1nonc12	inactive
COc1cc(-c2cccc3cccnc23)ccc1NC(C)=O	inconclusive: 12%
CC(C)Oc1ccc(NC(=O)c2ccc([N+](=O)[O-])cc2Cl)cc1	inactive
CCSc1nnc2c(n1)OC(c1ccco1)N(C(=O)CC)c1ccccc1-2 (stereo unspecified)	inconclusive: 26%
COc1cc(C2Nc3ccccc3C(=O)N2c2ccccc2)cc(OC)c1OC (stereo unspecified)	inconclusive: 10%
Cc1cc(Br)c(O)c(C=Nc2ccc(N3CCOCC3)cc2)c1	inconclusive: 25%

Looked up above:
inhibition with `O=[N+]([O-])c1cccc(C2SCCN2S(=O)(=O)c2ccc(-c3ccccc3)cc2)c1` (stereo unspecified) reads inconclusive: 11%
inhibition with `COc1ccc(CNC(=O)CC[C@]23CC[C@](C)(O)C[C@H]2C(C)(C)C[C@@H]3NCc2ccccc2OC)cc1` reads inconclusive: 18%
inhibition with `COc1ccc(CN2C[C@@H]3OCC(=O)N(c4ccccc4)[C@@H]3C2)cc1` reads inconclusive: 16%
inhibition with `O=C1Nc2ccccc2C(O)(C(=O)NC2CCCCC2)N1c1ccccc1` (stereo unspecified) reads inconclusive: 10%
inhibition with `COc1ccc(NC(=O)CN(c2ccccc2)S(=O)(=O)c2ccccc2[N+](=O)[O-])cc1Cl` reads inconclusive: 16%
inhibition with `CCOc1ccc(Br)cc1S(=O)(=O)NCc1ccccc1` reads inconclusive: 15%

The listing continues:

SMILES	inhibition
NC(=O)c1cn(-c2ccccc2)nc1-c1ccc(Br)cc1	inactive
CSc1nc2c(c(=O)[nH]1)C(c1ccc(N(C)C)cc1)C1=C(CCCC1=O)N2 (stereo unspecified)	inactive
Cc1ccc2nc(NC(=O)c3cnccn3)sc2c1	inactive
CC(=O)NCCCCCNC(C)=O	inactive
CC1=NN(c2ccccc2)C(=O)/C1=C\c1ccccc1OCc1ccccc1	active: 40%
Cn1c(SCc2ccccc2)nc2c1c(=O)[nH]c(=O)n2C	inconclusive: 27%
COc1ccccc1OCc1cc(C(=O)N2CCC(NC(C)=O)C2)n[nH]1 (stereo unspecified)	inconclusive: 23%
Cc1ccc(Cn2c(CCNC(=O)Nc3ccc(C)cc3)nc3cccnc32)cc1	inconclusive: 17%
COc1ccc(S(=O)(=O)N2C[C@@H]3C[C@H](C2)c2ccc(-c4ccc5ccccc5c4)c(=O)n2C3)cc1	inactive
Cc1ccc(CN2CCN(c3ccccc3)CC2)o1	inconclusive: 18%
N#CC1=C(N)n2c(s/c(=C/c3cccs3)c2=O)=C(C#N)C1c1cccs1 (stereo unspecified)	inactive
Cc1[nH]c(=O)[nH]c(=O)c1S(=O)(=O)NC1CCCCC1C (stereo unspecified)	inactive
Cn1cnnc1Sc1ccc(-c2nccn2C2CCCCCC2)o1	inactive
CCCC1C(C#N)=C(N)SC(N)=C1C#N	inconclusive: 13%
COCCNC(=O)C[C@@H]1C[C@@H](C(C)C)[C@H](CNC(=O)c2ccccc2OC)C=C1C	inconclusive: 11%
O=C(Nc1ccc(Cl)cc1)N1C[C@@H]2C[C@H](C1)c1ccc(-c3ccccc3CN3CCOCC3)c(=O)n1C2	inconclusive: 11%
O=C(NCc1ccccc1Cn1cccn1)c1cnn2c1CCCC2	inconclusive: 20%
COCCn1c(=O)[nH]c2cc(C(=O)N3CCN(C)CC3)ccc2c1=O	inactive
CCCC(=O)Nc1ccc(Nc2nc(C)cc(Nc3ccc(C)cc3)n2)cc1	inconclusive: 16%
Cc1ccc(NC(C)(C)C(=O)N2CCC(CN)C2)cc1 (stereo unspecified)	inactive
O=c1[nH]c2ccc(S(=O)(=O)N3CCc4ccccc43)cc2[nH]c1=O	inconclusive: 10%
COC(=O)[C@@H]1Cc2ncn(C)c2CN1S(=O)(=O)c1ccc(Cl)cc1	inconclusive: 11%
CC(C)c1cc(C(=O)N2CCn3nc(C(=O)Nc4ccccc4)cc3C2)no1	inconclusive: 11%
Cc1nc(N2CCCCCCC2)ncc1C(C)NC(=O)CCn1cccn1 (stereo unspecified)	inactive

SMILES	inhibition
O=C(C1c2ccccc2C(=O)N2CCc3ccccc3C12)N1CCN(c2ccc(F)cc2)CC1 (stereo unspecified)	inactive
O=C1NN(c2cccc(Br)c2)C(=O)/C1=C\c1ccc(O)cc1	inconclusive: 17%
CCOC(=O)C(C)Sc1nc2c(c(=O)n1-c1ccc(Cl)cc1)SCC2 (stereo unspecified)	inactive
Cc1cc(C(=O)N2CCc3c(nc[nH]c3=O)C2)c(NC(=O)C(C)(C)C)s1	inconclusive: 21%
CCCc1cc(CN(C)C(=O)c2cc(Cn3nc(C)cc3C)[nH]n2)[nH]n1	inconclusive: 13%
Cc1c(CN2CC[C@H](CO)[C@@H](O)C2)[nH]c2ccc(Cl)cc12	inconclusive: 11%
C[C@@H](NC(=O)/C(C#N)=C/c1ccc(O)c(O)c1)c1ccccc1	active: 58%
c1ccc2c3c([nH]c2c1)C(c1nc(C2CC2)n[nH]1)CCC3 (stereo unspecified)	inconclusive: 18%
COc1cccc2c(Nc3ccc(C)cc3)cc(C)nc12	inconclusive: 19%
CC(=O)N(CN1C(=O)CCC1=O)CN1C(=O)CCC1=O	inactive
Cc1cccc(C)c1NC(=O)CSCc1ccccc1Cl	inconclusive: 15%
CC1(C)CC(NC(=O)c2cn(CCCc3ccccc3)nn2)CCO1 (stereo unspecified)	inactive
C/C(=C\c1ccco1)C1C(C#N)=C(N)Oc2n[nH]c(-c3ccc(C)cc3)c21 (stereo unspecified)	inconclusive: 11%
CSc1nc2c(c(=O)n1-c1ccc(Br)cc1)SCC2	inconclusive: 10%
CC(=O)c1ccc(NC(=O)N2Cc3[nH]cnc3C[C@H]2c2nc(-c3ccccc3)no2)cc1	inconclusive: 26%
Cc1ccc(-n2cc(-c3ccc4c(c3)OCO4)[nH]c2=O)cc1Cl	inconclusive: 24%
Cc1cc(SCC(C)C)n2ncnc2n1	inactive
Cc1cccnc1CCNC(=O)C1CCC(=O)N(Cc2ccccn2)C1 (stereo unspecified)	inconclusive: 10%
COc1ccc(C(=O)Nc2cccc(-c3nc4ncccc4o3)c2C)cc1OC	inconclusive: 21%
COc1ccc2cc3cc(C(=O)N(C)c4ccccc4)sc3nc2c1	inconclusive: 24%
O=C(NCc1cnn2ccccc12)C1CCOC1 (stereo unspecified)	inconclusive: 17%
CCc1c(C)c(C#N)c2nc3ccccc3n2c1N1CCN(CCO)CC1	inconclusive: 17%
Cc1ccc(C)c(Cn2c(CN3CCOCC3)nc3c2c(=O)[nH]c(=O)n3C)c1	inactive
CCOC(=O)c1[nH]c2ccc(F)cc2c1NC(=O)CNc1nccs1	inactive
